Results published in patent US20110229560A1.
Results are given in words; binding and its absence hold for the method and conditions named. Binding seen in cells or lysates may run through a third protein. Some binding calls cover weakened binding; strength is not graded here. For some of these results: Tags and fused reporters may be left off the sequences shown.

Amino acid sequences for entries named in this document (tags omitted). A change or cut given only in a name is not applied to a line headed by its entry.
UniProt Q86WI3: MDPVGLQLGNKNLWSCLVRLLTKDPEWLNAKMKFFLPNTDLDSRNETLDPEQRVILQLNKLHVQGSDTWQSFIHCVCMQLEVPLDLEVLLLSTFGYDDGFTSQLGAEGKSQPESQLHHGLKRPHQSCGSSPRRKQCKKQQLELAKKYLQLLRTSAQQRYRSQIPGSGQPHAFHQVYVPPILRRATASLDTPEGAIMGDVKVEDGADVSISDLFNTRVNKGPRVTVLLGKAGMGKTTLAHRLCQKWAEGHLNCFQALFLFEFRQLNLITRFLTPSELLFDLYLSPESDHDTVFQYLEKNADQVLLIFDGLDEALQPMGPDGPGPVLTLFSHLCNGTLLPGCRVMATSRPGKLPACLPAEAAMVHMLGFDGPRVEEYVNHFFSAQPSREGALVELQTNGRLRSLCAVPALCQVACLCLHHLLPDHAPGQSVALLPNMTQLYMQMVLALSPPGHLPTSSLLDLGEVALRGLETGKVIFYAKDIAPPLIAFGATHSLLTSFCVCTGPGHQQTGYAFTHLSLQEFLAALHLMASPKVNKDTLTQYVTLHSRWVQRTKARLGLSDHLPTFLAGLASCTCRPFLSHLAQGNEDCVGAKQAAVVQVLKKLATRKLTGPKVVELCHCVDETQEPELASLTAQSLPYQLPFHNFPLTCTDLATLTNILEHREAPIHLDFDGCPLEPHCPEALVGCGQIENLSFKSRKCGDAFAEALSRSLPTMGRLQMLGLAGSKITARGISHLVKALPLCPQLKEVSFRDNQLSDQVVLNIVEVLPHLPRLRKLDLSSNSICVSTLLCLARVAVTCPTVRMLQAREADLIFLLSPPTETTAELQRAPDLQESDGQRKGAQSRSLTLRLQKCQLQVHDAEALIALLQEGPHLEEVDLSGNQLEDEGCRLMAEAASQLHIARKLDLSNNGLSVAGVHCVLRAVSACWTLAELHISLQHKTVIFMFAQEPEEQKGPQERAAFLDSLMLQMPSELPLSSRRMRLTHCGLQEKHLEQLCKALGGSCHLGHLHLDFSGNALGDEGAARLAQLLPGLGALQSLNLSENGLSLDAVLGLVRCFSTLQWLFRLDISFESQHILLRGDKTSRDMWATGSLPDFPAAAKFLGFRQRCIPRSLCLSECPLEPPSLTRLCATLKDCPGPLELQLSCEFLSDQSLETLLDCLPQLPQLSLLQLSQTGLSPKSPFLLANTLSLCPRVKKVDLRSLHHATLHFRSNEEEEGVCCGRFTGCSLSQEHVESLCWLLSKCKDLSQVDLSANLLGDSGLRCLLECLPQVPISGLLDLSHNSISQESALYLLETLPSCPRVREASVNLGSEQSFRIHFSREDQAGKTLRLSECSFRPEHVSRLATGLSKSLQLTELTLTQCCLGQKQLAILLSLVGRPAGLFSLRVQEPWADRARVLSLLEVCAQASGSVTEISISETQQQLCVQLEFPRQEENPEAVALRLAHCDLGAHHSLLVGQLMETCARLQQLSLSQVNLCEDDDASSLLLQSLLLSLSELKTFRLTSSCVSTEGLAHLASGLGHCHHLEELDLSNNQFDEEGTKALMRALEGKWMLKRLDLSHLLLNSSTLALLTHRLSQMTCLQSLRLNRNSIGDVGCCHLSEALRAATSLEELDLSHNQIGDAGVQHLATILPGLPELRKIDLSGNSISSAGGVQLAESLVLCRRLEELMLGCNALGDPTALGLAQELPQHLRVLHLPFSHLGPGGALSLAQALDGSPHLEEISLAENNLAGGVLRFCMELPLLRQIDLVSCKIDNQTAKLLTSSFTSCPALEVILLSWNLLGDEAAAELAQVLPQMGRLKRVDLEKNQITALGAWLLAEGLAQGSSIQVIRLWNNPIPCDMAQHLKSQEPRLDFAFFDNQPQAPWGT

Columns and labels:
Assay in all cases: restatement of the co-IP results
[1] = target: T1, Flag-RIG-I (UniProt O95786)
T1 sequence (looked up): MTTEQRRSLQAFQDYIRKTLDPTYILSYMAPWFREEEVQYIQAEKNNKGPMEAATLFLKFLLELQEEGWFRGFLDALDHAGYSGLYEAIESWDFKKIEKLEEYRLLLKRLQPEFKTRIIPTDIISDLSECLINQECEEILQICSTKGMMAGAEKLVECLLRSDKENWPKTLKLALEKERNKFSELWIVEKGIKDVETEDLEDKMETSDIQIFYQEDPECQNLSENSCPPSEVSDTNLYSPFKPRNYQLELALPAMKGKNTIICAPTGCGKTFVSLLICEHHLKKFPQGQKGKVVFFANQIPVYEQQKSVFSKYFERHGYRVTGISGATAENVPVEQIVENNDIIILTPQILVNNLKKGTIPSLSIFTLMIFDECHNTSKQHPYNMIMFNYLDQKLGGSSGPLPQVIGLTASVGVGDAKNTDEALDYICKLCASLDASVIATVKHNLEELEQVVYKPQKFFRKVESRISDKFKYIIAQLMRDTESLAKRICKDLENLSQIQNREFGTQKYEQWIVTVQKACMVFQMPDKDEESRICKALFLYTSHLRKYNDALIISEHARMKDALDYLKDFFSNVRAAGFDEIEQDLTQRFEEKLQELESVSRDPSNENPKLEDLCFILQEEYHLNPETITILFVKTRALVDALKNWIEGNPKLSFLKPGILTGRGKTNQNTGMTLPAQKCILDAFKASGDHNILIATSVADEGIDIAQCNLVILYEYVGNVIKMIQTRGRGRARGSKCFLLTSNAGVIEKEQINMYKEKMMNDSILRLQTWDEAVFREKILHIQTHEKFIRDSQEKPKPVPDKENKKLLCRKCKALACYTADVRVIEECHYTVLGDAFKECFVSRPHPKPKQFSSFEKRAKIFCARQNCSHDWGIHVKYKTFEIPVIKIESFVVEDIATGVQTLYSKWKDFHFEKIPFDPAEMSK

[2] = target: T2, Flag-tagged IKKβ (full length) (UniProt O14920)
T2 sequence (looked up): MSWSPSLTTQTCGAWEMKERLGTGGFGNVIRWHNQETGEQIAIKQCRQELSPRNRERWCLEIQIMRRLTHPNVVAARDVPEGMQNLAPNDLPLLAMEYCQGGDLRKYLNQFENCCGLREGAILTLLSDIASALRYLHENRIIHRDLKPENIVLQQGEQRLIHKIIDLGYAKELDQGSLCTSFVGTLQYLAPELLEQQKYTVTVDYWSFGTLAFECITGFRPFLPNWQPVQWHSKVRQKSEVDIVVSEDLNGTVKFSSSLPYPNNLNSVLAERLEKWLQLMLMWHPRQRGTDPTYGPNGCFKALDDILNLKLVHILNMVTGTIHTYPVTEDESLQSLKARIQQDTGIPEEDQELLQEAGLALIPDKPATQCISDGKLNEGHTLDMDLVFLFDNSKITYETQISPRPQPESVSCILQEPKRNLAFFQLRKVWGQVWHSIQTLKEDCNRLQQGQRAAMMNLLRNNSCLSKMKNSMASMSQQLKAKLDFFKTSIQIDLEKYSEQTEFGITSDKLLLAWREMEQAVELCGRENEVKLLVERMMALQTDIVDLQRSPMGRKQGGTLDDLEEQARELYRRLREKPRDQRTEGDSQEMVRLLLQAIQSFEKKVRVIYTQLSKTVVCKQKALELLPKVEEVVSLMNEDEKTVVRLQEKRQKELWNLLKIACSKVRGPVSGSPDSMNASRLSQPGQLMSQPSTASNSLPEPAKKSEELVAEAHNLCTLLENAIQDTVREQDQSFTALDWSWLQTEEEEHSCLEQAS

[3] = target: T3, IKKβ-KD (amino-terminal kinase domain construct of IKKβ, Flag-tagged) (UniProt O14920)
T3 sequence (looked up): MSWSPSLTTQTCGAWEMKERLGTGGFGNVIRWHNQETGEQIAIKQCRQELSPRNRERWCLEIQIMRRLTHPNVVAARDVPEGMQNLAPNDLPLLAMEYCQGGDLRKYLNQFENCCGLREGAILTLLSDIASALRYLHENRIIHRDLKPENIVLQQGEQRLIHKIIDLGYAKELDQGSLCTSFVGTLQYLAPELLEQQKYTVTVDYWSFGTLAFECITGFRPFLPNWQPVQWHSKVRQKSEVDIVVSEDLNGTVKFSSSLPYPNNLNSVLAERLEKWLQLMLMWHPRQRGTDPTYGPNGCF

[4] = target: T4, MDA5 (expressed in 293T cells) (UniProt Q9BYX4)
T4 sequence (looked up): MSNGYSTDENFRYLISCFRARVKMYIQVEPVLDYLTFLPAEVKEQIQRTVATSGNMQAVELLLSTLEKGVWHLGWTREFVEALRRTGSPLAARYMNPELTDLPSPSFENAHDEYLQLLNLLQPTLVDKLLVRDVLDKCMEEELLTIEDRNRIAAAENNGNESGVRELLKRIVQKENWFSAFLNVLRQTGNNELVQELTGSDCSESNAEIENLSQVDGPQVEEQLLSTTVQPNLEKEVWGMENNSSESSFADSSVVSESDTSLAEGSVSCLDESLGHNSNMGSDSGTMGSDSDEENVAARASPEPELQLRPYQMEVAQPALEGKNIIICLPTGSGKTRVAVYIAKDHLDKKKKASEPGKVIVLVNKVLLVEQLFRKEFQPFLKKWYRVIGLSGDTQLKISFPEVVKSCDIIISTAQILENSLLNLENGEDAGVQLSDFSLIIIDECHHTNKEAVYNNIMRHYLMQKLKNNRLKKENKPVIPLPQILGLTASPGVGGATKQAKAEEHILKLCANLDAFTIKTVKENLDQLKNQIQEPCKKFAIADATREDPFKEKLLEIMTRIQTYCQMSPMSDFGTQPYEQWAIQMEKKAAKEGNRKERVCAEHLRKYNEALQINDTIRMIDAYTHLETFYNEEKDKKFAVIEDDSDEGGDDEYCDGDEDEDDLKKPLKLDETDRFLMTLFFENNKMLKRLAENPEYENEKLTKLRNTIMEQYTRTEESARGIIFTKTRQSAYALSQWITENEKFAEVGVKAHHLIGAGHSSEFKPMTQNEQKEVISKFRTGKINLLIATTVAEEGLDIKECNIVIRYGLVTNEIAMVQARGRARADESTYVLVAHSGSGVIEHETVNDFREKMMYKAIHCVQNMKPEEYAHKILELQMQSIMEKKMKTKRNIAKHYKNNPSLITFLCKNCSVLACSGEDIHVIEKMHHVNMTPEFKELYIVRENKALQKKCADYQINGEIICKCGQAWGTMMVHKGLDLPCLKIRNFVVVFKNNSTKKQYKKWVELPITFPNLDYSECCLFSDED

Measured: binding

HA-tagged NLRC5 (human NLRC5, full length) (from UniProt Q86WI3 1-1866)
binds: all assays above
